PubChem BioAssay AID504791, Drosophila RNAi Screening Center, 2011

Purpose: 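Factors in Argonaute-based small RNA production and activity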 (primary screen)
System: Drosophila S2-derived reporter cells
Knock-down reagent: long dsRNA against Drosophila genes, about 150-250 ng dsRNA per well (siRNA assay); about 80-120 ng (miRNA assay)
Duration: about 5 days (siRNA assay); about 4 days (miRNA assay)
Conditions: copper sulfate induction of reporters: 25 µM (siRNA assay); 200 mM stated (miRNA assay), 1-2 days before reading
Measurement: 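Dual luciferase assay: Renilla to firefly signal ratio in each well, scaled to the mean ratio of its plate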
Units: stable assay Renilla, run 1 in luminescence; stable assay firefly, run 1 in luminescence
Call rule: 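First-pass picks had plate-scaled ratios over 1.5 for the siRNA assay, over 1.6 for the miRNA assay, or under 0.6; two distinct dsRNAs had to score alike on retest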
The screen tested about 23,000 reagents; below is a random part of those with a known target gene and a result. In the full data, 199 (0.86%) were called active. 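Plate-scaled ratios behind the calls are not deposited; printed light signals are raw; many rows marked increased or decreased are still called inactive.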 Not stated in the record: the direction of the score.

What did the screen give for alka [DRSC06136]?
stable assay Renilla, run 1: 6442; stable assay firefly, run 1: 3.39e5; outcome: inactive

How did the screen score rols [DRSC09873]?
stable assay Renilla, run 1: 5914; stable assay firefly, run 1: 3.33e5; outcome: inactive

What did the screen give for rols [DRSC10254]?
stable assay Renilla, run 1: 5770; stable assay firefly, run 1: 3.01e5; outcome: inactive

Which result is listed for rols [DRSC10536]?
stable assay Renilla, run 1: 5394; stable assay firefly, run 1: 3.51e5; outcome: inactive

How did the screen score CG30480 [DRSC06736]?
stable assay Renilla, run 1: 6275; stable assay firefly, run 1: 3.10e5; outcome: inactive

With CG31797 [DRSC02476], what was measured?
stable assay Renilla, run 1: 7575; stable assay firefly, run 1: 3.84e5; outcome: inactive

For CG31797 [DRSC02477], what was measured?
stable assay Renilla, run 1: 7214; stable assay firefly, run 1: 4.31e5; outcome: inactive

How did the screen score CG13369 [DRSC18481]?
stable assay Renilla, run 1: 6158; stable assay firefly, run 1: 3.23e5; outcome: inactive

With CG9240 [DRSC20177], how do the results read?
stable assay Renilla, run 1: 4872; stable assay firefly, run 1: 3.75e5; outcome: inactive

For TfIIS [DRSC03455], how do the results read?
stable assay Renilla, run 1: 7363; stable assay firefly, run 1: 1.36e6; outcome: inactive

How did the screen score CG12253 [DRSC02153]?
stable assay Renilla, run 1: 6268; stable assay firefly, run 1: 9.63e5; outcome: inactive

With scramb1 [DRSC09724], what was measured?
stable assay Renilla, run 1: 6380; stable assay firefly, run 1: 4.41e5; outcome: inactive

For scramb1 [DRSC10667], what was measured?
stable assay Renilla, run 1: 6615; stable assay firefly, run 1: 4.37e5; outcome: inactive

With scramb1 [DRSC10668], what does the deposit list?
stable assay Renilla, run 1: 6835; stable assay firefly, run 1: 4.55e5; outcome: inactive

For lab [DRSC12627], how do the results read?
stable assay Renilla, run 1: 7631; stable assay firefly, run 1: 3.37e5; outcome: inactive

Which result is listed for phol [DRSC10367]?
stable assay Renilla, run 1: 7515; stable assay firefly, run 1: 3.51e5; outcome: inactive

What did the screen give for CG15439 [DRSC00453]?
stable assay Renilla, run 1: 4551; stable assay firefly, run 1: 5.35e5; outcome: inactive

Which result is listed for CG10029 [DRSC12498]?
stable assay Renilla, run 1: 7179; stable assay firefly, run 1: 5.40e5; outcome: inactive

With Cds [DRSC10938], what was measured?
stable assay Renilla, run 1: 7813; stable assay firefly, run 1: 3.33e5; outcome: inactive

For NimB5 [DRSC01885], how do the results read?
stable assay Renilla, run 1: 7332; stable assay firefly, run 1: 4.64e5; outcome: inactive

What did the screen give for CG11594 [DRSC08207]?
stable assay Renilla, run 1: 7631; stable assay firefly, run 1: 4.10e5; outcome: inactive

How did the screen score CG31826 [DRSC03357]?
stable assay Renilla, run 1: 8162; stable assay firefly, run 1: 5.54e5; outcome: inactive

For CG7653 [DRSC01886], how do the results read?
stable assay Renilla, run 1: 7612; stable assay firefly, run 1: 4.11e5; outcome: inactive

With Galphao [DRSC07430], how do the results read?
stable assay Renilla, run 1: 7442; stable assay firefly, run 1: 3.69e5; outcome: inactive

With CG5885 [DRSC02910], what was measured?
stable assay Renilla, run 1: 34259; stable assay firefly, run 1: 7.16e5; outcome: inactive

What did the screen give for CG34028 [DRSC17614]?
stable assay Renilla, run 1: 5424; stable assay firefly, run 1: 3.33e5; outcome: inactive

How did the screen score MTF-1 [DRSC08983]?
stable assay Renilla, run 1: 3611; stable assay firefly, run 1: 3.12e5; outcome: inactive

What did the screen give for MTF-1 [DRSC11217]?
miRNA reporter change: reporter ratio raised past the hit cutoff; stable assay Renilla, run 1: 3039; stable assay firefly, run 1: 2.30e5; outcome: active

What did the screen give for MTF-1 [DRSC21341]?
miRNA reporter change: reporter ratio raised past the hit cutoff; stable assay Renilla, run 1: 4712; stable assay firefly, run 1: 2.18e5; outcome: active

Limited to “stable assay firefly, run 1”, for 5 of the entries above:
CG15439 [DRSC00453] = 5.35e5
CG10029 [DRSC12498] = 5.40e5
Cds [DRSC10938] = 3.33e5
NimB5 [DRSC01885] = 4.64e5
CG11594 [DRSC08207] = 4.10e5
